According to PMC10258837 (Journal of the American Chemical Society, 2021):

Test system: AnpF orthologs
Assay: amino acid-dependent ATP-PPi exchange, AnpF orthologs
Type: biochemical
Conditions: amino acid-dependent ATP-PPi exchange assay

SMILES: N[C@@H](Cc1ccc(O)cc1)C(=O)O [L-Tyr]
- A domain activation by AnpF orthologs: no activity
